Source: PubChem BioAssay AID652272 (Drosophila RNAi Screening Center, 2013)
In all, the deposit lists about 21,000 reagents; below is a random part of those that have a named target and a result. In the full data, 503 (2.4%) were called active. 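Raw plate light values, not normalised; calls rest on replicate z-scores that were not deposited; hits include reporter decreases as well as increases.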 A number with no mark means an inactive call. A plus sign joins genes that one reagent is predicted to hit. The record does not give: the amount of reagent, the time to read-out.

Aim: 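Genome-wide knock-down search for components of Hedgehog signalling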 (primary screen)
Cells: Drosophila clone 8 (Cl8) cells
Reagents: long dsRNA against Drosophila genes
Measured: 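Plate reader light from a firefly reporter under a ptc promoter fragment that responds to Hedgehog, with Renilla light as transfection reference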
Scale: firefly Hh reporter signal: higher = more ptc reporter light; Renilla reference signal: higher = more Renilla control light
Rule for the call: 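Called a hit if the two-replicate mean z-score lies below -2 or above +3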
Calls: active = hit: reporter lowered or raised; inactive = not a hit

Which result is listed for ItgaPS5 [DRSC04501]?
firefly Hh reporter signal, replicate 1: 1.30e5; firefly Hh reporter signal, replicate 2: 77670; Renilla reference signal, replicate 1: 3061; Renilla reference signal, replicate 2: 6834

How did the screen score CG5084 [DRSC06913]?
firefly Hh reporter signal, replicate 1: 93965; firefly Hh reporter signal, replicate 2: 67011; Renilla reference signal, replicate 1: 2640; Renilla reference signal, replicate 2: 4924

What did the screen give for CG4456 + Hsp22 [DRSC11187]?
firefly Hh reporter signal, replicate 1: 34690; firefly Hh reporter signal, replicate 2: 58333; firefly Hh reporter signal, replicate 3: 57532; Renilla reference signal, replicate 1: 5517; Renilla reference signal, replicate 2: 4331

What did the screen give for CG4456 + Hsp22 [DRSC11192]?
firefly Hh reporter signal, replicate 1: 1.59e5; firefly Hh reporter signal, replicate 2: 83010; Renilla reference signal, replicate 1: 5971; Renilla reference signal, replicate 2: 3525

With CG9855 [DRSC12344], how do the results read?
firefly Hh reporter signal, replicate 1: 1.68e5; firefly Hh reporter signal, replicate 2: 6.93e5; firefly Hh reporter signal, replicate 3: 1.01e5; Renilla reference signal, replicate 1: 6332; Renilla reference signal, replicate 2: 43706

With CG43439 + CG32388 [DRSC08861], how do the results read?
firefly Hh reporter signal, replicate 1: 1.34e5; firefly Hh reporter signal, replicate 2: 2.07e5; Renilla reference signal, replicate 1: 3448; Renilla reference signal, replicate 2: 7233

For CG5070 [DRSC19932], how do the results read?
firefly Hh reporter signal, replicate 1: 59385; firefly Hh reporter signal, replicate 2: 1.58e5; Renilla reference signal, replicate 1: 2112; Renilla reference signal, replicate 2: 7718

With CycG [DRSC14324], how do the results read?
firefly Hh reporter signal, replicate 1: 1.10e5; firefly Hh reporter signal, replicate 2: 72288; Renilla reference signal, replicate 1: 2618; Renilla reference signal, replicate 2: 2666

Sorted by “Renilla reference signal, replicate 2” (lowest first): some entries from above
CG4456 + Hsp22 [DRSC11192] — firefly Hh reporter signal, replicate 1: 1.59e5; firefly Hh reporter signal, replicate 2: 83010; Renilla reference signal, replicate 1: 5971; Renilla reference signal, replicate 2: 3525
CG9855 [DRSC12344] — firefly Hh reporter signal, replicate 1: 1.68e5; firefly Hh reporter signal, replicate 2: 6.93e5; firefly Hh reporter signal, replicate 3: 1.01e5; Renilla reference signal, replicate 1: 6332; Renilla reference signal, replicate 2: 43706

The results go on:
What is on record for asRNA:CR43463 + Pgant35A [DRSC03557]?
firefly Hh reporter signal, replicate 1: 1.78e5; firefly Hh reporter signal, replicate 2: 5.01e5; firefly Hh reporter signal, replicate 3: 59227; Renilla reference signal, replicate 1: 4613; Renilla reference signal, replicate 2: 28736

For CG14186 [DRSC10185], how do the results read?
firefly Hh reporter signal, replicate 1: 69191; firefly Hh reporter signal, replicate 2: 85168; Renilla reference signal, replicate 1: 2576; Renilla reference signal, replicate 2: 2928

What did the screen give for Sdhaf3 [DRSC15020]?
firefly Hh reporter signal, replicate 1: 89821; firefly Hh reporter signal, replicate 2: 74963; Renilla reference signal, replicate 1: 3218; Renilla reference signal, replicate 2: 1472

What did the screen give for Pburs [DRSC02483]?
firefly Hh reporter signal, replicate 1: 1.17e5; firefly Hh reporter signal, replicate 2: 48332; Renilla reference signal, replicate 1: 3152; Renilla reference signal, replicate 2: 4845

How did the screen score Syx5 [DRSC03432]?
firefly Hh reporter signal, replicate 1: 63852; firefly Hh reporter signal, replicate 2: 59792; Renilla reference signal, replicate 1: 3002; Renilla reference signal, replicate 2: 2364

For CG7724 [DRSC10905], what does the deposit list?
firefly Hh reporter signal, replicate 1: 84437; firefly Hh reporter signal, replicate 2: 98674; Renilla reference signal, replicate 1: 3377; Renilla reference signal, replicate 2: 3568
